Data from patent US20240199651A1, “ANTIBACTERIAL COMPOUNDS” (JANSSEN SCIENCES IRELAND UNLIMITED COMPANY, priority 2021, published 2024).
For part of these data: At least one compound was matched to its structure with a doubt left. Some entries share one result that the patent states for a list of compounds.

What was measured:
[1] = Mitochondrial toxicity (Glu/Gal) assay; format: cell-based; conditions: for mitotoxicity in the Glu/Gal assay: low mitotoxicity, no mitotoxicity alerts; for Score: mitotoxicity score, Glu/Gal assay
From the text: (§1) The compounds of the invention/examples may have advantages associated with in vitro potency, kill kinetics (i.e. bactericidal effect) in vitro, PK properties, food effect, safety/toxicity (including liver toxicity, coagulation, 5-LO oxygenase), metabolic stability, Ames II negativity, MNT negativity, aqueous based solubility (and ability to formulate) and/or cardiovascular effect e.g. on animals (e.g. anesthetized guinea pig). Data that is generated/calculated may be obtained using standard methods/assays, for instance that are available in the literature or which may be performed by a supplier (e.g. Microsomal Stability Assay—Cyprotex, Mitochondrial toxicity (Glu/Gal) assay—Cyprotex, as well as literature CYP cocktail inhibition assays). GSH can be measured (reactive metabolites, glucuronidation) to observe if a dihydrodiol is observed by LCMS (fragmentation ions), which would correspond to a dihydroxylation on the core heterocycle.

[2] = LM CLint (microsomal stability), mouse; format: in vitro ADME; conditions: 1 μm
From the text: as §1
CLint Microsomes (μL/Min/Mg) in Dog (d), Human (h), Mouse (m) and Rat (r) (all at 1 μm)

SMILES | mitotoxicity in the Glu/Gal assay [1] | CLint Microsomes, Mouse (m) [2] | Score [1]
CCc1nc2ncc(Cl)cn2c1C(=O)NCc1ccc(-c2nc3n(n2)CCN(S(=O)(=O)C(F)(F)F)C3)cc1 [Compound 2] | < 2 | < 7.7 μL/Min/Mg | –
CCc1nc2ncc(C)cn2c1C(=O)NCc1ccc(-c2nc3n(n2)CCN(S(=O)(=O)C(F)(F)F)C3)c(F)c1 [Compound 7] | < 2 | < 7.7 μL/Min/Mg | –
CCc1nc2ncc(C)cn2c1C(=O)NCc1ccc(-c2cc3n(n2)CCN(S(=O)(=O)C(F)(F)F)C3)c(C)c1 [Compound 84] | – | – | [x]2
CCc1nc2ncc(C)cn2c1C(=O)NCc1ccc(-c2nn3c(c2C)CN(S(=O)(=O)C(F)(F)F)CC3)c(F)c1 [Compound 87] | – | – | [x]2
